In the supplement of paper PMC11659162:
Some of the results follow. Single values of this set are uncertain.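 The cells are a human neuroglioma line carrying a green fluorescent autophagy reporter.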

system: H4 GFP-LC3; assay: cell viability (scaled to control) (fraction of control); higher = more viable cells; conditions: 5 µM; 6 h

Compared with CC(=O)N1CC[N+](C)(C)CC1, CC(=O)OC1CN2CCC1CC2 (stereo not given) is lower in cell viability: 1.05 for the first, 1 for the second.

Going from COc1ccc(C(CN(C)C)C2(O)CCCCC2)cc1 (stereo not given) to COc1cccc(C2(O)CCCCC2CN(C)C)c1 (stereo not given), the cell viability rises from 0.762 to 1.08.

First: COC(=O)[C@@H]1C[C@H](OC(C)=O)C(=O)[C@H]2[C@@]1(C)CC[C@H]1C(=O)O[C@H](c3ccoc3)C[C@]21C
Second: COC(=O)/C=C/C(=O)N[C@@H]1CC[C@@]2(O)[C@H]3Cc4ccc(O)c5c4[C@@]2(CCN3CC2CC2)[C@H]1O5
The cell viability of the first is higher: 1.06 for the first, 0.971 for the second.

Compared with C1CCc2nnnn2CC1, O=C(Cc1ccc(Cl)c(Cl)c1)N1CCCCC1CN1CCCC1 (stereo not given) is higher in cell viability: 0.885 for the first, 1 for the second.

First: CCNC(=O)[C@H]1O[C@@H](n2cnc3c(N)ncnc32)[C@H](O)[C@@H]1O
Second: N[C@@H](Cn1oc(=O)[nH]c1=O)C(=O)O
The cell viability of the first is higher: 1.04 for the first, 1.01 for the second.

Going from CNCC(O)c1ccc(O)cc1 (stereo not given) to CC(C)c1cccc(C(C)C)c1O, the cell viability falls from 1.18 to 1.03.

Going from C=CCN1CC[C@]23CCCC[C@H]2[C@H]1Cc1ccc(O)cc13 to C=CCN1CCC2(C)c3cc(O)ccc3CC1C2C (racemic), the cell viability falls from 1.09 to 1.04.

Going from Clc1cncc(N2CCNCC2)n1 to Clc1cccc(SC2CCNCC2)n1, the cell viability rises from 0.732 to 0.823.

Going from CSCCC(NC(=O)C(Cc1ccccc1)NC(=O)CNC(=O)CNC(=O)C(N)Cc1ccc(O)cc1)C(=O)O (stereo not given) to C[C@@H](NC(=O)[C@@H](N)Cc1ccc(O)cc1)C(=O)N[C@@H](Cc1ccccc1)C(=O)NCC(=O)N[C@@H](Cc1ccc(O)cc1)C(=O)N1CCC[C@H]1C(=O)N[C@@H](CO)C(N)=O, the cell viability rises from 0.98 to 0.992.

Going from Cc1nc(N)sc1CCN to Nc1ccc(CCN2CCN(c3cccc(C(F)(F)F)c3)CC2)cc1, the cell viability falls from 1.1 to 0.618.

First: CCCN1CCO[C@@H]2c3cc(O)ccc3OC[C@H]21
Second: CN1CCC(c2c[nH]c3ccc(O)cc23)CC1
The cell viability of the first is higher: 0.936 for the first, 0.849 for the second.

Going from Fc1ccc(C(OCCN2CCN(CCCc3ccccc3)CC2)c2ccc(F)cc2)cc1 to c1ccc(CCCN2CCN(CCOC(c3ccccc3)c3ccccc3)CC2)cc1, the cell viability rises from 0.842 to 0.874.

Compared with CN(C)Cc1c[nH]c2ccccc12, Clc1ccc(N2CCN(Cc3c[nH]c4ncccc34)CC2)cc1 is lower in cell viability: 1.01 for the first, 0.762 for the second.

Compared with C[N+]1(C)CCc2cc3c(cc2C1C1OC(=O)c2c1ccc1c2OCO1)OCO3 (single isomer, unassigned; (-)), Oc1ccc2c3c1O[C@H]1c4c(c5ccccc5n4Cc4ccccc4)C[C@@]4(O)[C@@H](C2)N(CC2CC2)CC[C@]314 is higher in cell viability: 0.845 for the first, 0.911 for the second.

First: C[C@]12CC[C@@H](O)C[C@@H]1CC[C@@H]1[C@@H]2CC[C@]2(C)[C@@H](C(=O)CO)CC[C@@H]12
Second: CCN1C[C@]2(C)CC[C@H](O)[C@]34C1[C@@H](C[C@H]23)[C@@]1(O)C[C@H](OC)[C@H]2C[C@@H]4[C@@H]1[C@H]2O
The cell viability of the first is lower: 0.905 for the first, 1.05 for the second.

Compared with CCCC[N+]1(C)[C@@H]2CC(OC(=O)[C@H](CO)c3ccccc3)C[C@H]1[C@@H]1O[C@@H]12 (stereo not given in full), CN(C(=O)Cc1ccccc1)[C@H](CN1CCCC1)c1ccccc1 is lower in cell viability: 1.07 for the first, 0.948 for the second.

Compared with CCN1C[C@]2(COC)CC[C@H](OC)[C@]34C5C[C@@H]6[C@@H](OC)C[C@@]7(OCO[C@@]7(C13)[C@@H](O)C24)C5[C@H]6OC (stereo not given in full), C[N+]1(C)CCOC(O)(c2ccc(-c3ccc(C4(O)C[N+](C)(C)CCO4)cc3)cc2)C1 (stereo not given) is higher in cell viability: 0.815 for the first, 0.915 for the second.

With O=C(O)/C=C/CO the cell viability was 0.944.
